# Earlier results as cited in US11491127B2, “Therapeutic use of compounds” (UCL BUSINESS LTD, priority 2010, dated 2022).
# At least one compound was matched to its structure with a doubt left.
# System: phosphoinositide (PIP and PIP2) turnover in Dictyostelium AX2 cells
# Settings: cited from earlier work
structure (smiles),measurement,setting,value
[Li] [lithium],attenuation of phosphoinositide signalling,"10 mM lithium, acute (9 min) treatment",does not attenuate
same,effect on PIP and PIP2 levels,"lithium, extended treatment (60 min)",reduces PIP and PIP2 levels
